Here are results for one sequence from article PMC7396694, “Two MarR-Type Repressors Balance Precursor Uptake and Glycine Betaine Synthesis in Bacillus subtilis to Provide Cytoprotection Against Sustained Osmotic Stress” (Frontiers in Microbiology, 2020).

No signal at the amounts used counts as a negative. Where a protein sequence is shown, tags need not be part of it.

This data set concerns the target T1, GbsR-Strep-tag II (Bacillus subtilis JH642) (UniProt P71015).
T1 sequence (looked up): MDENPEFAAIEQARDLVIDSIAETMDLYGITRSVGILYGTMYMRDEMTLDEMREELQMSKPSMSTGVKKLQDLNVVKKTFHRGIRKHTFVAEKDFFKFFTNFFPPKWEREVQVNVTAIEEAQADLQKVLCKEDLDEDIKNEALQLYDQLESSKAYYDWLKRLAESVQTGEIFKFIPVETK
The data set is described as follows: EMSA. Conditions: 150 ug/ml herring sperm DNA; 10 mM Tris pH 8, 150 ug/ml herring sperm DNA, 7.5% glycerol, 1 pmol DNA in 20 ul, 20 min at 25 C; native 8% polyacrylamide gel; recombinant protein; residues 1-180; protein details: C-terminal Strep-tag II (SA-WSHPQFEK); label: 5' DY781 on the BS_gbsA_rev strand; probe letters rebuilt from the primers and the genome.

With “GGGACTTTGACAGTTTAAAAACCATATGTTAGATTAAGGTTGTTAAAAACACAAACTTTATTTACGTCAAGGAGGCTTAT (double strand) [gbsA fragment lacking GbsR operator]”, the binding result is on record as “no binding”.
